Measurements published in doi:10.1101/2024.05.08.592949.
Like-named read-outs stand apart in the source and are kept apart here. Results are given in words; binding and its absence hold for the method and conditions named. Binding seen in cells or lysates may run through a third protein. Some entries that bind do so weakly or less than the wild type. Tags and fused reporters may be left off the sequences shown.

Assays:
[1] = target: T1, HA-GPR158 (full-length mouse GPR158 with an N-terminal HA-tag) (mouse) (UniProt Q8C419); experiment: co-IP
T1 sequence: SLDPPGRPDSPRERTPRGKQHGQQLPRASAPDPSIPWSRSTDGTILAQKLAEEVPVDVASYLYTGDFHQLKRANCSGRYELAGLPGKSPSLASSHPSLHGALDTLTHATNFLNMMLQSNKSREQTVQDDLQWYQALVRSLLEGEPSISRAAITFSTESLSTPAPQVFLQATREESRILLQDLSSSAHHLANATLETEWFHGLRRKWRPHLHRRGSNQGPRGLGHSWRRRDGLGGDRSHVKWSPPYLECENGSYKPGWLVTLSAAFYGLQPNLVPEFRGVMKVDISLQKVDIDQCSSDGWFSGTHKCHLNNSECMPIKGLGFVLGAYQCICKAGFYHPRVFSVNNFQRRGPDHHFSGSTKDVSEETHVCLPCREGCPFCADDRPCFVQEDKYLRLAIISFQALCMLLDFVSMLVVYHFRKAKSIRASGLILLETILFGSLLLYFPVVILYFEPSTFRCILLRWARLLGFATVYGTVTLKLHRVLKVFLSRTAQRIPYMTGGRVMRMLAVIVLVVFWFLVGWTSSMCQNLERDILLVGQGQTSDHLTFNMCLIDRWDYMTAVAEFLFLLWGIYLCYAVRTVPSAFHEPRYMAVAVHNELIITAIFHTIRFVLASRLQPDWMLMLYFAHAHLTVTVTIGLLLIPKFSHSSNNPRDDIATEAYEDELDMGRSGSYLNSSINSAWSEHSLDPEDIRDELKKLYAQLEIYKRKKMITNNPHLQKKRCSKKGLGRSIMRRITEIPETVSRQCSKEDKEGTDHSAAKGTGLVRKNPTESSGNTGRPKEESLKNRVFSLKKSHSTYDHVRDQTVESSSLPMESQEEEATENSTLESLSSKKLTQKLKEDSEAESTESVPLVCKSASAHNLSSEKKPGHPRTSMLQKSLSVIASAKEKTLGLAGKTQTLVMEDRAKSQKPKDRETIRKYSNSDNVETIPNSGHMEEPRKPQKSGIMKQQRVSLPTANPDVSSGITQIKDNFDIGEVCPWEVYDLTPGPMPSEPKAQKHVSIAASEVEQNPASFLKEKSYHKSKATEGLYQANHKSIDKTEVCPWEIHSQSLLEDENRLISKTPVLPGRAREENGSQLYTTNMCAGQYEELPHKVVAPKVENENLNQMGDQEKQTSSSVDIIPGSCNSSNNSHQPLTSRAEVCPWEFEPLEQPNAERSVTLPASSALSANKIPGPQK

[2] = target: T2, PLCXD2-FLAG (full-length mouse PLCXD2 with a C-terminal FLAG-tag) (mouse) (UniProt B2RXA1); experiment: co-IP
T2 sequence: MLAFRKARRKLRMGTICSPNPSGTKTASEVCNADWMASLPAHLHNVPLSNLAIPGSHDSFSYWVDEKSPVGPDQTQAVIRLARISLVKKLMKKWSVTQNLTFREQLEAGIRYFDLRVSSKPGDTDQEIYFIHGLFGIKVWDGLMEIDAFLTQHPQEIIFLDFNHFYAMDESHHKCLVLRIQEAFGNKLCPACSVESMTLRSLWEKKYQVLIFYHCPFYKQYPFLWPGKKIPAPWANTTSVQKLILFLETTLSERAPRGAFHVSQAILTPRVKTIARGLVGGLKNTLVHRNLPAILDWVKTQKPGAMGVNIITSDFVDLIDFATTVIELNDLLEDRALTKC

[3] = target: T3, GPR158-CFAST (full-length mouse GPR158 with an N-terminal HA-tag and a C-terminal CFAST11-tag) (mouse) (UniProt Q8C419); experiment: split reporter
T3 sequence: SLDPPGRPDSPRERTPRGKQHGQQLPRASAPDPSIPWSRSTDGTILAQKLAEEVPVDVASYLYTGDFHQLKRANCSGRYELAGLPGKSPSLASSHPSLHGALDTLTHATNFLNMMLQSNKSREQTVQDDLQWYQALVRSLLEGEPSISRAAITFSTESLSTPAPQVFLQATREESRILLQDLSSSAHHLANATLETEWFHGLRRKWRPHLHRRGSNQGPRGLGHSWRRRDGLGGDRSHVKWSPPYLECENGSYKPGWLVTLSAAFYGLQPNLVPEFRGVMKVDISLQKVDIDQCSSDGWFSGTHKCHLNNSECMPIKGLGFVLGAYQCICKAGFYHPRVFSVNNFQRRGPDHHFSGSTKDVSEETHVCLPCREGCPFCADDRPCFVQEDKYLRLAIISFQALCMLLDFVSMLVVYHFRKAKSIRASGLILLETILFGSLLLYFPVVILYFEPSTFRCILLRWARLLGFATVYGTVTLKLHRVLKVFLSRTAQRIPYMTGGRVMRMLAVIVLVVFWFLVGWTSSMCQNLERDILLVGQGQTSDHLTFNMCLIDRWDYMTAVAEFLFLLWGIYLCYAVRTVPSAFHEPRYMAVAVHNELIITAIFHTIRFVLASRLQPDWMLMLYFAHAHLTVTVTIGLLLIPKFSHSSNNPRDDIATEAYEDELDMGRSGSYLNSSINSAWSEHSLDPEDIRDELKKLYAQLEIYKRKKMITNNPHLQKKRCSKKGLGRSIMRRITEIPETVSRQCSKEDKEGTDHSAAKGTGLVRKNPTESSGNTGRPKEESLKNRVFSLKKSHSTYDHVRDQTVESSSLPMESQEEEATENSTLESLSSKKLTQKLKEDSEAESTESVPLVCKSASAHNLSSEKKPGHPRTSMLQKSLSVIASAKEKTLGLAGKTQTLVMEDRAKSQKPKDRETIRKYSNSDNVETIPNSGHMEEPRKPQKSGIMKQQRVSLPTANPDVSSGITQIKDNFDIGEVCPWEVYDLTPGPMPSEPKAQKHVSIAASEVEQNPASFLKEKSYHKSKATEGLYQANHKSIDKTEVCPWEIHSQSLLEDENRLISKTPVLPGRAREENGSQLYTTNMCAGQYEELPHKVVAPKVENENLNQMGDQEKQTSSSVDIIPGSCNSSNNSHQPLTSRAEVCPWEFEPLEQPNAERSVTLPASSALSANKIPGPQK

[4] = target: T3, GPR158-CFAST (full-length mouse GPR158 with an N-terminal HA-tag and a C-terminal CFAST11-tag) (mouse); experiment: split reporter; remark: listed apart in the source

B1: PLCXD2-FLAG (full-length mouse PLCXD2 with a C-terminal FLAG-tag) (enzyme, UniProt B2RXA1 1-340)
chain: MLAFRKARRKLRMGTICSPNPSGTKTASEVCNADWMASLPAHLHNVPLSNLAIPGSHDSFSYWVDEKSPVGPDQTQAVIRLARISLVKKLMKKWSVTQNLTFREQLEAGIRYFDLRVSSKPGDTDQEIYFIHGLFGIKVWDGLMEIDAFLTQHPQEIIFLDFNHFYAMDESHHKCLVLRIQEAFGNKLCPACSVESMTLRSLWEKKYQVLIFYHCPFYKQYPFLWPGKKIPAPWANTTSVQKLILFLETTLSERAPRGAFHVSQAILTPRVKTIARGLVGGLKNTLVHRNLPAILDWVKTQKPGAMGVNIITSDFVDLIDFATTVIELNDLLEDRALTKC
In the case of B1, the binding [1] is reported as “binds”.

B2: HA-GPR158 (full-length mouse GPR158 with an N-terminal HA-tag) (receptor, UniProt Q8C419 25-1200)
chain: SLDPPGRPDSPRERTPRGKQHGQQLPRASAPDPSIPWSRSTDGTILAQKLAEEVPVDVASYLYTGDFHQLKRANCSGRYELAGLPGKSPSLASSHPSLHGALDTLTHATNFLNMMLQSNKSREQTVQDDLQWYQALVRSLLEGEPSISRAAITFSTESLSTPAPQVFLQATREESRILLQDLSSSAHHLANATLETEWFHGLRRKWRPHLHRRGSNQGPRGLGHSWRRRDGLGGDRSHVKWSPPYLECENGSYKPGWLVTLSAAFYGLQPNLVPEFRGVMKVDISLQKVDIDQCSSDGWFSGTHKCHLNNSECMPIKGLGFVLGAYQCICKAGFYHPRVFSVNNFQRRGPDHHFSGSTKDVSEETHVCLPCREGCPFCADDRPCFVQEDKYLRLAIISFQALCMLLDFVSMLVVYHFRKAKSIRASGLILLETILFGSLLLYFPVVILYFEPSTFRCILLRWARLLGFATVYGTVTLKLHRVLKVFLSRTAQRIPYMTGGRVMRMLAVIVLVVFWFLVGWTSSMCQNLERDILLVGQGQTSDHLTFNMCLIDRWDYMTAVAEFLFLLWGIYLCYAVRTVPSAFHEPRYMAVAVHNELIITAIFHTIRFVLASRLQPDWMLMLYFAHAHLTVTVTIGLLLIPKFSHSSNNPRDDIATEAYEDELDMGRSGSYLNSSINSAWSEHSLDPEDIRDELKKLYAQLEIYKRKKMITNNPHLQKKRCSKKGLGRSIMRRITEIPETVSRQCSKEDKEGTDHSAAKGTGLVRKNPTESSGNTGRPKEESLKNRVFSLKKSHSTYDHVRDQTVESSSLPMESQEEEATENSTLESLSSKKLTQKLKEDSEAESTESVPLVCKSASAHNLSSEKKPGHPRTSMLQKSLSVIASAKEKTLGLAGKTQTLVMEDRAKSQKPKDRETIRKYSNSDNVETIPNSGHMEEPRKPQKSGIMKQQRVSLPTANPDVSSGITQIKDNFDIGEVCPWEVYDLTPGPMPSEPKAQKHVSIAASEVEQNPASFLKEKSYHKSKATEGLYQANHKSIDKTEVCPWEIHSQSLLEDENRLISKTPVLPGRAREENGSQLYTTNMCAGQYEELPHKVVAPKVENENLNQMGDQEKQTSSSVDIIPGSCNSSNNSHQPLTSRAEVCPWEFEPLEQPNAERSVTLPASSALSANKIPGPQK
In the case of B2, the binding [2] is reported as “binds”.

B3: PLCXD2-NFAST (full-length mouse PLCXD2 with a C-terminal FLAG-tag and NFAST-tag) (enzyme, UniProt B2RXA1 1-340)
chain: MLAFRKARRKLRMGTICSPNPSGTKTASEVCNADWMASLPAHLHNVPLSNLAIPGSHDSFSYWVDEKSPVGPDQTQAVIRLARISLVKKLMKKWSVTQNLTFREQLEAGIRYFDLRVSSKPGDTDQEIYFIHGLFGIKVWDGLMEIDAFLTQHPQEIIFLDFNHFYAMDESHHKCLVLRIQEAFGNKLCPACSVESMTLRSLWEKKYQVLIFYHCPFYKQYPFLWPGKKIPAPWANTTSVQKLILFLETTLSERAPRGAFHVSQAILTPRVKTIARGLVGGLKNTLVHRNLPAILDWVKTQKPGAMGVNIITSDFVDLIDFATTVIELNDLLEDRALTKC
With B3 the binding [3] was “binds” and the binding [4] was “binds”.
